The chains behind the UniProt entries cited, without tags or fusion partners.
UniProt Q0JBA9, entry or part of it: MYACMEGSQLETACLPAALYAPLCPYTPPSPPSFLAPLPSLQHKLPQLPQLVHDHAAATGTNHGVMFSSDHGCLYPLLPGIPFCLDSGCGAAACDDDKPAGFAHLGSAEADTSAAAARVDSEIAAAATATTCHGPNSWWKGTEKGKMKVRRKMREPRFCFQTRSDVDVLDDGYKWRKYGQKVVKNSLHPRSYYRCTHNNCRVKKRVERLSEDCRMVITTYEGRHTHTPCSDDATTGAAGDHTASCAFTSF

Some of the results follow.
What follows are sequences tested against OsWRKY34 (Oryza sativa, UniProt Q0JBA9 1-250) (assay: protein-binding microarray (RPBM); PBS, 2% BSA, 51.3 ng/ul salmon testes DNA, 50 uM zinc acetate, 200 nM TF, 25 C, 1 h; high values mean tight binding). Details: protein: recombinant; tags: N-terminal polyhistidine and DsRed monomer fusion (pET32a); label: CyDye5-dUTP incorporated in the synthesized complementary strand; 3' TTTTT single-stranded linker to array surface; dsDNA, one strand shown.
In short: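 Transcription factors were each fused at the N-terminus to a polyhistidine tag plus DsRed and expressed in E. coli BL21-CodonPlus before Ni–NTA purification. Binding to a double-stranded custom Agilent array was carried out with 200 nM protein at 25 °C for 1 h in PBS, 2% BSA, salmon testes DNA and 50 µM zinc acetate. The binding signal is per-feature fluorescence intensity, in arbitrary units, on an Axon 4000B scanner.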
“CATTGCACGTAAACGAACATTTCTGCACTCAGCAAGCACACGGAGTCACCTAGTGCAG” was tested, and the binding signal was 8510 fluorescence intensity (a.u.). For “CGTACTATATTATATGCATACACTTCTCTCAATGCAGCTCCGGAGTCACCTAGTGCAG”, the binding signal was 11100 fluorescence intensity (a.u.). For “GCAACGTTTGACCACTTGTCTTATTTAATTTTTTTTTGCACGGAGTCACCTAGTGCAG”, the binding signal was 9340 fluorescence intensity (a.u.). In the case of “TTGAGAGTTCTTTGCTTTTGAAGATTCACCTGTTCCTTTCCGGAGTCACCTAGTGCAG”, the binding signal is reported as 9440 fluorescence intensity (a.u.). With “ATCGGTGTCATCCCCAATCCTTGCCTCCGAGCCTAGTCCTCGGAGTCACCTAGTGCAG” the binding signal was 9630 fluorescence intensity (a.u.). “CACACGATTTTGCTATCCCGCAGTCCGCGCGCGCACCCGTCGGAGTCACCTAGTGCAG” was tested, and the binding signal was 10300 fluorescence intensity (a.u.). “ACCCACTTATCGCGCATGCAGGGGAGGAGGGGATCGAATCCGGAGTCACCTAGTGCAG” was tested, and the binding signal was 10600 fluorescence intensity (a.u.). With “GAGACGAATCTGTTAAGCCTAATTTAGTGCAGCACTTATACGGAGTCACCTAGTGCAG” the binding signal was 8780 fluorescence intensity (a.u.). With “TTTTTCTAACTAACAGTTCAGTTATCTGATTGTACTGAATCGGAGTCACCTAGTGCAG” the binding signal was 8290 fluorescence intensity (a.u.). In the case of “GCATTGATAAGTATTTCTTCCGTTTCATATTATAAGTCGTCGGAGTCACCTAGTGCAG”, the binding signal is reported as 10200 fluorescence intensity (a.u.). “CACTTTCAACCCATATCTACCGTCCGTCTCCATCTGACACCGGAGTCACCTAGTGCAG” was tested, and the binding signal was 8990 fluorescence intensity (a.u.). In the case of “AACGGTCATTCCTATATTTTTCCTGTGTTTTGCAATCCTCCGGAGTCACCTAGTGCAG”, the binding signal is reported as 8070 fluorescence intensity (a.u.). For “TCTTGCCTCGCGCCGCCTCCGGCCGACCGCCGCGCTCCACCGGAGTCACCTAGTGCAG”, the binding signal was 8360 fluorescence intensity (a.u.). For “GTACTAGATCTTTCATCAGTTTTGTCGGTTTACGCTGTATCGGAGTCACCTAGTGCAG”, the binding signal was 11700 fluorescence intensity (a.u.). In the case of “TACCAACACAACTACACACTTGTTTACCTAGCTAGATCATCGGAGTCACCTAGTGCAG”, the binding signal is reported as 8710 fluorescence intensity (a.u.). For “ACTGTACCTGAGAGTGATTTCCCAACCATTTTTGTTTGACCGGAGTCACCTAGTGCAG”, the binding signal was 9080 fluorescence intensity (a.u.). “ACCTCAAAAATCACGTGTTCTTCGTGCCCAACCGCACCGCCGGAGTCACCTAGTGCAG” was tested, and the binding signal was 8620 fluorescence intensity (a.u.). In the case of “CTCTCTCTCTCTCTCTCTCTCTCTCTCTCTCTCTCCATCCCGGAGTCACCTAGTGCAG”, the binding signal is reported as 13300 fluorescence intensity (a.u.). In the case of “CACCACACGTCCAGTACCTTCCACGGTCACACACAGAATTCGGAGTCACCTAGTGCAG”, the binding signal is reported as 8440 fluorescence intensity (a.u.). For “CAACCACCTCATCATCATCATTATAATCAAGATCATTACCCGGAGTCACCTAGTGCAG”, the binding signal was 9830 fluorescence intensity (a.u.). “CACCGTCTCCCGCTCCGGCCGCTCCTCCTACTCCGCCGGTCGGAGTCACCTAGTGCAG” was tested, and the binding signal was 8640 fluorescence intensity (a.u.). With “CCAGCACTGTCAGCTTTCCGCCCCTAGCACCGGCGCCGGTCGGAGTCACCTAGTGCAG” the binding signal was 10300 fluorescence intensity (a.u.). “ATAATTTATACACAACACACACACACACACACATATATATCGGAGTCACCTAGTGCAG” was tested, and the binding signal was 8570 fluorescence intensity (a.u.). In the case of “TCTCACCCTAGCCGCCGCCGCCTCCTCCTCCTCTCGCCTTCGGAGTCACCTAGTGCAG”, the binding signal is reported as 10500 fluorescence intensity (a.u.). “ACTTGTTTATATGATGGATGTATTTTTCAGCCGGCCAAACCGGAGTCACCTAGTGCAG” was tested, and the binding signal was 9110 fluorescence intensity (a.u.). For “AGTGATTATTGCCGGTCGGCGCCCATAGTTTTTTCCCGCACGGAGTCACCTAGTGCAG”, the binding signal was 10600 fluorescence intensity (a.u.). In the case of “AAATATTTGATGGCAGCAATTGGTTTTTTTTTTCATATTTCGGAGTCACCTAGTGCAG”, the binding signal is reported as 8280 fluorescence intensity (a.u.). For “CGGTCTTTGCGTTTCTGTTTATGTATTCTGACCTTATATTCGGAGTCACCTAGTGCAG”, the binding signal was 10300 fluorescence intensity (a.u.). In the case of “ATGTGTGTGTTATTATGGTCCCGTTCGAAAGTGATGATCACGGAGTCACCTAGTGCAG”, the binding signal is reported as 9390 fluorescence intensity (a.u.). “TTACTATATTATGGGACAGAGGGGTATGTTTTTTTTTAAACGGAGTCACCTAGTGCAG” was tested, and the binding signal was 8180 fluorescence intensity (a.u.). With “ATTTGGGTTCGAAGTCTCACCCCTTGTAATTATTTGATATCGGAGTCACCTAGTGCAG” the binding signal was 8400 fluorescence intensity (a.u.). “GTTTGAGGGTTTTTTGTTGGTTTAGAATCATCTTTTTCTTCGGAGTCACCTAGTGCAG” was tested, and the binding signal was 9210 fluorescence intensity (a.u.). “TCCATATCCGATCCCTTCTCGATCATCGCTCATCATCACACGGAGTCACCTAGTGCAG” was tested, and the binding signal was 9010 fluorescence intensity (a.u.). “GGACCCACCTGCCGAACCAGCACGCATCGCGTCTCGCACCCGGAGTCACCTAGTGCAG” was tested, and the binding signal was 8590 fluorescence intensity (a.u.). “TTTTCTTCTTTCTTTCTCTCTGTCTTGTTCAATTTTTTCTCGGAGTCACCTAGTGCAG” was tested, and the binding signal was 11800 fluorescence intensity (a.u.). “TACTGAGGTTTTAGAATGGGTTTTTGTATCTTAGGGAAATCGGAGTCACCTAGTGCAG” was tested, and the binding signal was 8280 fluorescence intensity (a.u.). With “GAGATATCGTTGACTTTTAGCATAACATAGACCATTCAGCCGGAGTCACCTAGTGCAG” the binding signal was 18300 fluorescence intensity (a.u.). For “TAAACATGTGGCTGACTTTCTTTTTTAAAATTTTAATCCACGGAGTCACCTAGTGCAG”, the binding signal was 9460 fluorescence intensity (a.u.). For “TCCTTTTCCATCACATCAACCTGTCATACACACACAACTTCGGAGTCACCTAGTGCAG”, the binding signal was 8150 fluorescence intensity (a.u.). With “TACCGCCGCGGGCGACTCCGGCGAGGAGGGGCGAGGGGCGCGGAGTCACCTAGTGCAG” the binding signal was 8290 fluorescence intensity (a.u.). For “CCGGCGGCGCGTTCTACCTCCTCTACCGGCCGCACCGCCCCGGAGTCACCTAGTGCAG”, the binding signal was 8440 fluorescence intensity (a.u.). In the case of “CCTCTGCATCTGTCCTCCATGCGCGGCCAAGCTCGCCGGCCGGAGTCACCTAGTGCAG”, the binding signal is reported as 9880 fluorescence intensity (a.u.).
